Results from one PubChem assay

Source: PubChem BioAssay AID504749 (NCATS, 2011).

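Malaria parasite (P. falciparum) lines kept in red blood cells; parasite DNA is measured by SYBR Green fluorescence after lysis, 72 h after compound addition. Each compound was titrated across a series from about 0.000037 to 29 µM. The number is the fitted AC50, the concentration giving a half-maximal change in signal; a lower value means higher potency, whether the curve shows a decrease or an increase. Calls follow the curve class and fit quality: every row here is inconclusive, covering signal-raising curves and weak, poorly fitted, partial or highest-dose-only inhibition curves.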

Values are in µM. Every entry below has the call inconclusive. Only part of the assay is shown, chiefly results filed as inconclusive. A potency from a partial, single-point or poor curve is only a rough figure. Some entries filed as inconclusive have a full curve. The first word of each remark tells which way the curve ran; it can be opposite to the aim of the assay.

| Compound | tested on / at | Potency (µM) | curve as filed |
|---|---|---|---|
| `Cc1oc(=O)oc1CN1CCN(c2cc3c(cc2F)c(=O)c(C(=O)O)c2n3C(C)S2)CC1` (stereo not given) | CP269 | 1.901 | inhibitor, full curve |
| `Cc1oc(=O)oc1CN1CCN(c2cc3c(cc2F)c(=O)c(C(=O)O)c2n3C(C)S2)CC1` (stereo not given) | CP211 | 3.793 | inhibitor, full curve |
| `Cc1oc(=O)oc1CN1CCN(c2cc3c(cc2F)c(=O)c(C(=O)O)c2n3C(C)S2)CC1` (stereo not given) | CP201 | 1.694 | inhibitor, full curve |
| `Cc1oc(=O)oc1CN1CCN(c2cc3c(cc2F)c(=O)c(C(=O)O)c2n3C(C)S2)CC1` (stereo not given) | CP291 | 3.381 | inhibitor, full curve |
| `Cc1oc(=O)oc1CN1CCN(c2cc3c(cc2F)c(=O)c(C(=O)O)c2n3C(C)S2)CC1` (stereo not given) | CP262 | 8.492 | inhibitor, partial curve |
| `Cc1oc(=O)oc1CN1CCN(c2cc3c(cc2F)c(=O)c(C(=O)O)c2n3C(C)S2)CC1` (stereo not given) | CP325 | 1.901 | inhibitor, full curve |
| `Cc1oc(=O)oc1CN1CCN(c2cc3c(cc2F)c(=O)c(C(=O)O)c2n3C(C)S2)CC1` (stereo not given) | CP297 | 1.51 | inhibitor, full curve |
| `Cc1oc(=O)oc1CN1CCN(c2cc3c(cc2F)c(=O)c(C(=O)O)c2n3C(C)S2)CC1` (stereo not given) | PAD | 11.22 | inhibitor, single point |
| `Cc1oc(=O)oc1CN1CCN(c2cc3c(cc2F)c(=O)c(C(=O)O)c2n3C(C)S2)CC1` (stereo not given) | CP305 | 4.776 | inhibitor, partial curve |
| `Cc1oc(=O)oc1CN1CCN(c2cc3c(cc2F)c(=O)c(C(=O)O)c2n3C(C)S2)CC1` (stereo not given) | DIV30 | 3.381 | inhibitor, partial curve, poor fit |
| `Cc1oc(=O)oc1CN1CCN(c2cc3c(cc2F)c(=O)c(C(=O)O)c2n3C(C)S2)CC1` (stereo not given) | JCK | 17.78 | inhibitor, single point |
| `Cc1oc(=O)oc1CN1CCN(c2cc3c(cc2F)c(=O)c(C(=O)O)c2n3C(C)S2)CC1` (stereo not given) | CP194 | 1.51 | inhibitor, full curve |
| `Cc1oc(=O)oc1CN1CCN(c2cc3c(cc2F)c(=O)c(C(=O)O)c2n3C(C)S2)CC1` (stereo not given) | PC26 | 1.2 | inhibitor, full curve |
| `Cc1oc(=O)oc1CN1CCN(c2cc3c(cc2F)c(=O)c(C(=O)O)c2n3C(C)S2)CC1` (stereo not given) | CP192 | 4.256 | inhibitor, full curve |
| `Cc1oc(=O)oc1CN1CCN(c2cc3c(cc2F)c(=O)c(C(=O)O)c2n3C(C)S2)CC1` (stereo not given) | N140 | 7.943 | inhibitor, partial curve, poor fit |
| `Cc1oc(=O)oc1CN1CCN(c2cc3c(cc2F)c(=O)c(C(=O)O)c2n3C(C)S2)CC1` (stereo not given) | FAB9 | 10 | inhibitor, single point |
| `CCCOC(=O)c1ccccc1` | CP262 | 19.01 | activator, single point |
| `CN(C)C(=N)N=C(N)N` | CP268 | 9.074 | inhibitor, single point |
| `CN(C)C(=N)N=C(N)N` | DIV17 | 8.087 | inhibitor, single point |
| `CN(C)C(=N)N=C(N)N` | CP262 | 0.0016 | activator, full curve, poor fit |
| `CN(C)C(=N)N=C(N)N` | PC26 | 8.087 | inhibitor, single point |
| `CN(C)C(=N)N=C(N)N` | CP291 | 8.087 | inhibitor, single point |
| `CN(C)C(=N)N=C(N)N` | CP211 | 5.103 | inhibitor, single point |
| `CN(C)C(=N)N=C(N)N` | CP194 | 5.103 | inhibitor, single point |
| `CN(C)C(=N)N=C(N)N` | AS120 | 1.585 | inhibitor, single point |
| `CN(C)C(=N)N=C(N)N` | DIV30 | 8.087 | inhibitor, single point |
| `CN(C)C(=N)N=C(N)N` | CP315 | 8.087 | inhibitor, single point |
| `CN(C)C(=N)N=C(N)N` | CP297 | 8.087 | inhibitor, single point |
| `CN(C)C(=N)N=C(N)N` | CP215 | 7.208 | inhibitor, single point |
| `CN(C)C(=N)N=C(N)N` | DIV14 | 6.424 | inhibitor, single point |
| `CN(C)C(=N)N=C(N)N` | CP203 | 8.087 | inhibitor, single point |
| `CN(C)C(=N)N=C(N)N` | CP269 | 8.087 | inhibitor, single point |
| `CN(C)C(=N)N=C(N)N` | GB4 | 8.087 | inhibitor, single point |
| `CN(C)C(=N)N=C(N)N` | CP192 | 4.548 | inhibitor, single point |
| `CC(CCc1ccc(O)cc1)NCCc1ccc(O)c(O)c1` (stereo not given) | 7G8 | 17.78 | inhibitor, single point |
| `CC(CCc1ccc(O)cc1)NCCc1ccc(O)c(O)c1` (stereo not given) | W2 | 1.901 | inhibitor, single point |
| `CC(CCc1ccc(O)cc1)NCCc1ccc(O)c(O)c1` (stereo not given) | Dd2 | 17.78 | inhibitor, single point |
| `CC(CCc1ccc(O)cc1)NCCc1ccc(O)c(O)c1` (stereo not given) | PC15 | 12.59 | inhibitor, single point |
| `CO[C@H]1/C=C/O[C@@]2(C)Oc3c(C)c(O)c4c(O)c(c5c(c4c3C2=O)NC2(CCN(CC(C)C)CC2)N=5)=NC(=O)/C(C)=C\C=C\[C@H](C)[C@H](O)[C@@H](C)[C@@H](O)[C@@H](C)[C@H](OC(C)=O)[C@@H]1C` | CP269 | 13.46 | inhibitor, single point |
| `CO[C@H]1/C=C/O[C@@]2(C)Oc3c(C)c(O)c4c(O)c(c5c(c4c3C2=O)NC2(CCN(CC(C)C)CC2)N=5)=NC(=O)/C(C)=C\C=C\[C@H](C)[C@H](O)[C@@H](C)[C@@H](O)[C@@H](C)[C@H](OC(C)=O)[C@@H]1C` | DIV30 | 15.1 | inhibitor, single point |
| `CO[C@H]1/C=C/O[C@@]2(C)Oc3c(C)c(O)c4c(O)c(c5c(c4c3C2=O)NC2(CCN(CC(C)C)CC2)N=5)=NC(=O)/C(C)=C\C=C\[C@H](C)[C@H](O)[C@@H](C)[C@@H](O)[C@@H](C)[C@H](OC(C)=O)[C@@H]1C` | CP315 | 19.01 | inhibitor, single point |
| `CO[C@H]1/C=C/O[C@@]2(C)Oc3c(C)c(O)c4c(O)c(c5c(c4c3C2=O)NC2(CCN(CC(C)C)CC2)N=5)=NC(=O)/C(C)=C\C=C\[C@H](C)[C@H](O)[C@@H](C)[C@@H](O)[C@@H](C)[C@H](OC(C)=O)[C@@H]1C` | DFO2036 | 11.22 | inhibitor, single point |
| `CO[C@H]1/C=C/O[C@@]2(C)Oc3c(C)c(O)c4c(O)c(c5c(c4c3C2=O)NC2(CCN(CC(C)C)CC2)N=5)=NC(=O)/C(C)=C\C=C\[C@H](C)[C@H](O)[C@@H](C)[C@@H](O)[C@@H](C)[C@H](OC(C)=O)[C@@H]1C` | CP201 | 19.01 | inhibitor, partial curve, poor fit |
| `CO[C@H]1/C=C/O[C@@]2(C)Oc3c(C)c(O)c4c(O)c(c5c(c4c3C2=O)NC2(CCN(CC(C)C)CC2)N=5)=NC(=O)/C(C)=C\C=C\[C@H](C)[C@H](O)[C@@H](C)[C@@H](O)[C@@H](C)[C@H](OC(C)=O)[C@@H]1C` | CP325 | 13.46 | inhibitor, single point |

For reference, 3 entries once more:

| Compound | tested on / at | Potency (µM) | curve as filed |
|---|---|---|---|
| `CO[C@H]1/C=C/O[C@@]2(C)Oc3c(C)c(O)c4c(O)c(c5c(c4c3C2=O)NC2(CCN(CC(C)C)CC2)N=5)=NC(=O)/C(C)=C\C=C\[C@H](C)[C@H](O)[C@@H](C)[C@@H](O)[C@@H](C)[C@H](OC(C)=O)[C@@H]1C` | CP269 | 13.46 | inhibitor, single point |
| `CN(C)C(=N)N=C(N)N` | CP194 | 5.103 | inhibitor, single point |
| `Cc1oc(=O)oc1CN1CCN(c2cc3c(cc2F)c(=O)c(C(=O)O)c2n3C(C)S2)CC1` (stereo not given) | CP269 | 1.901 | inhibitor, full curve |